Source: patent US20220073611A1
No constants are given. Whether binding was seen depends on the method and setting. Each block holds one binder with its values, some of them ahead of it.

Target: GluN1a with the amino terminal residues 26-382 deleted
Assay: immunofluorescence on HEK293T cells expressing the mutant

binding: no binding (tested: 5 µg/mL)
B1: mAb 5F5 (antibody, V domains shown)
VH: QVQLVESGGGVVRPGGSLRLSCAASGFTFSTYSLHWVRQAPGKGLEWVGVILYDGSKKYYADSVRGRFTISRDNSKSTLNLDMSSLRPDDTAVYYCARDPIAVAPRPSGMVPQGFDYWGQGTLVTVSS
VL: QSVVTQPPSASGTPGQRVTISCSGSSSNIGRNFVFWYRQLPGTAPKVLIYKNIQRPSGVPDRISGSRSGSSASLAISGLRSEDEADYYCASWDDSLSGVVFGGGTKLTVL

binding: no binding (tested: 5 µg/mL)
B2: mAb 2G6 (antibody, V domains shown)
VH: QVQLQESGGGVVQPGRSLRLSCAASGFSFNAFAMHWVRQAPGKGLEWVARISHYGSDDYYADSVKGRFTISRDNSQNTLFLQMNSLKAEDTGVYYCWRGFTLVRGVISRNPINRFSGMDVWGQGTTVTVS
VL: SYELMQPPSVSVSPGQTARITCSGDALPKKYAYWYQQKSGQAPILVIYEDNKRPSGIPERFSGSSSGTMATLTISGAQVEDEADYFCYSTDSSGNHGVFGGGTKLTVL
